Binding signal data for 42 sequences are collected here from PMC7819943, “Rice protein-binding microarrays: a tool to detect cis-acting elements near promoter regions in rice”.

Sequences of proteins named here, by UniProt entry; tags and fusion partners are left off.
UniProt Q0JBA9, entry or part of it: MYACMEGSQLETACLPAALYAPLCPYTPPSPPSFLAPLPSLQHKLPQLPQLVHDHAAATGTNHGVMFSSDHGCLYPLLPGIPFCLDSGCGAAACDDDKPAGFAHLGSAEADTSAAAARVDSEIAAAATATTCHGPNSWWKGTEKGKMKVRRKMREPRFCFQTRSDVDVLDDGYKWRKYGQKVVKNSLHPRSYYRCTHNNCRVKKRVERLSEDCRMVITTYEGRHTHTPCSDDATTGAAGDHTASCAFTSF

The list shows a part of the results.

This test deals with OsWRKY34 (Oryza sativa, UniProt Q0JBA9 1-250). The test can be described thus: protein-binding microarray (RPBM); PBS, 2% BSA, 51.3 ng/ul salmon testes DNA, 50 uM zinc acetate, 200 nM TF, 25 C, 1 h; high values mean tight binding. Conditions: protein: recombinant; tags: N-terminal polyhistidine and DsRed monomer fusion (pET32a); label: CyDye5-dUTP incorporated in the synthesized complementary strand; 3' TTTTT single-stranded linker to array surface; dsDNA, one strand shown. In outline:
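Polyhistidine-tagged DsRed fusions of transcription factors, joined at the N-terminus, were expressed in E. coli BL21-CodonPlus and isolated on Ni–NTA. They were incubated at 200 nM for 1 h at 25 °C on a custom Agilent array, double-stranded and BSA-blocked, in PBS with 2% BSA, salmon testes DNA and 50 µM zinc acetate. The binding signal is per-feature fluorescence intensity (arbitrary units) read on an Axon 4000B scanner after washing.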
In the case of “TTCCTTTGTTTAGTTGTTTGTTTTACATTCCACTCTACTACGGAGTCACCTAGTGCAG”, the binding signal was 9220 fluorescence intensity (a.u.).
As to “AGTTCAACTTTAACCGTTTGTCTTATTTATTTTTTTTGAACGGAGTCACCTAGTGCAG”, the binding signal is 9090 fluorescence intensity (a.u.).
Regarding “CGCCCAATTCCCCACTCCGATTCCTCTTCTTTCGCCCAAACGGAGTCACCTAGTGCAG”, the binding signal is 10400 fluorescence intensity (a.u.).
As for “TCGCCGCCGCAACGCCTTCCAAAATCAAACCCTAGCCTAGCGGAGTCACCTAGTGCAG”, the binding signal is 8570 fluorescence intensity (a.u.).
Take “AAGTCAAACATTTGGCGCCAAATTGAAAATCCCTTTCTACCGGAGTCACCTAGTGCAG”: the binding signal was 8080 fluorescence intensity (a.u.).
For the sequence “TGCTACTTCGCTTGCAGCGTGCGTGTCGGCTAGACCGTCCCGGAGTCACCTAGTGCAG”, the binding signal is 8060 fluorescence intensity (a.u.).
With “GAGGGCAAGGGCGGCGGGTCTAACACAACACAATAAGAGTCGGAGTCACCTAGTGCAG”, the binding signal was 9470 fluorescence intensity (a.u.).
In the case of “CACGCCACTTCTCAAAACTTGCATGCATGCTACTGTGCCTCGGAGTCACCTAGTGCAG” it was 8050 fluorescence intensity (a.u.); in that of “GCCAGCCGGATCAGATCCAACACCTACCAACCTACCTTGGCGGAGTCACCTAGTGCAG”, 9840 fluorescence intensity (a.u.); in that of “AGCACCACCACCACCACCACCACCGCCATAGCTAGCCGCTCGGAGTCACCTAGTGCAG”, 10700 fluorescence intensity (a.u.).
As to “AAGGTTGTGGTTAGTGTTTCTTGATTACTGAAAATGGATACGGAGTCACCTAGTGCAG”, the binding signal is 10600 fluorescence intensity (a.u.).
Take “TCCCATTTCTCTCGCGACAATTAGCGCTGCAACCTCTGAACGGAGTCACCTAGTGCAG”: the binding signal is 9560 fluorescence intensity (a.u.).
For “GTCATGCATAACGTATTACCTTTTCTCTTCCTTTTCCCTACGGAGTCACCTAGTGCAG”, the binding signal is 9250 fluorescence intensity (a.u.).
Regarding “GTATTTTCGGTCAAACAATCCACGCTCCACTCAAATCAACCGGAGTCACCTAGTGCAG”, the binding signal is 8510 fluorescence intensity (a.u.).
For the sequence “TCATGGGGATTGGGGAGGCCAGGTGGAAGGAAGATTCCGGCGGAGTCACCTAGTGCAG”, the binding signal was 9350 fluorescence intensity (a.u.).
For “CCCGCATTCACTGTAGCTAGACCAATTCTAGACTTTCCAGCGGAGTCACCTAGTGCAG”, the binding signal is 10300 fluorescence intensity (a.u.).
On to “CACCCAAGCCAAGCCCACGACCCGCACCGCAACACGCACACGGAGTCACCTAGTGCAG”, for which the binding signal was 8520 fluorescence intensity (a.u.).
As for “CATTTCAATGTTTGCCAATTGACTTTATTTTTCTTTTGGTCGGAGTCACCTAGTGCAG”, the binding signal was 9230 fluorescence intensity (a.u.).
On to “GTCATCGCCCAGCGCCGCGGCGACTCCAGCAAATTCGCGACGGAGTCACCTAGTGCAG”, for which the binding signal was 8090 fluorescence intensity (a.u.).
With “TTACTAGTCTACTGCTGCTGCTCTTGCTCTGAACTTTTTTCGGAGTCACCTAGTGCAG”, the binding signal is 8080 fluorescence intensity (a.u.).
For the sequence “TCGGACGGACGCTTTCCATTTCCGAACTGTTTTCATCCATCGGAGTCACCTAGTGCAG”, the binding signal was 8240 fluorescence intensity (a.u.).
Take “TCCTCTCGCCATCGAGTCCGACACGTCCACATCGCCATTACGGAGTCACCTAGTGCAG”: the binding signal is 8240 fluorescence intensity (a.u.).
For “TTTGATCACATCTTACACTGCCGGGTGGGGTCAGCATCTGCGGAGTCACCTAGTGCAG”, the binding signal was 8070 fluorescence intensity (a.u.).
For “GGTGCCGTTGGAACCCACAGCCACTGGCCAGTCATTTACACGGAGTCACCTAGTGCAG”, the binding signal was 8030 fluorescence intensity (a.u.).
Consider “TCTCTCGCAAGTGTTGTTATTCCTTTCTCTCCCGCCAATACGGAGTCACCTAGTGCAG”, for which the binding signal is 10200 fluorescence intensity (a.u.).
Turning to “GATGTGACGTGATGTGATGGAAAGTTGGGAGTTGGGGAAACGGAGTCACCTAGTGCAG”, the binding signal was 8560 fluorescence intensity (a.u.).
In the case of “TCCTCTCCTCTCGAGCTCACCTATTATTGGTCCATTCTAGCGGAGTCACCTAGTGCAG” it was 8490 fluorescence intensity (a.u.); in that of “GCTCATCGTCACCATTTTTCACAGGGTGTAGGGGCGTCTCCGGAGTCACCTAGTGCAG”, 11300 fluorescence intensity (a.u.).
Regarding “TGTCGCAATCTTTTGTGAATTGGTGGTGTGTTTTGTCAGTCGGAGTCACCTAGTGCAG”, the binding signal is 8610 fluorescence intensity (a.u.).
Take “TTTCTTAGCTATGTCCTAATTTATTACTGTGCATGTTTCTCGGAGTCACCTAGTGCAG”: the binding signal was 10900 fluorescence intensity (a.u.).
On to “GCCACCCCTGCTCCGTGCCTTTGCATACACATGGTCATCTCGGAGTCACCTAGTGCAG”, for which the binding signal was 8340 fluorescence intensity (a.u.).
As for “CCCAGGTCCGCTGCTTCTACTTCTACATCTGTTTTATCTTCGGAGTCACCTAGTGCAG”, the binding signal is 10300 fluorescence intensity (a.u.).
On to “GTCGATTTTTAATTTTGTTCGCTTTTGGAAATACATATCCCGGAGTCACCTAGTGCAG”, for which the binding signal is 11200 fluorescence intensity (a.u.).
Under “ATATCTTGTCCCTGGCCTCGGCTTTGTTCAAGTACAGAACCGGAGTCACCTAGTGCAG” stands 8310 fluorescence intensity (a.u.); under “TAGTTCATTTGCATGCTTATTTCCGCCACAGTGTGGCGATCGGAGTCACCTAGTGCAG”, 13200 fluorescence intensity (a.u.).
As to “CAGAGAAAGTATATATTTGTTTGGTTGAACTTCACACTTTCGGAGTCACCTAGTGCAG”, the binding signal was 8110 fluorescence intensity (a.u.).
In the case of “TGTCGGTATCACCCGTATCACATCACAATACGTCAATATCCGGAGTCACCTAGTGCAG” it was 9310 fluorescence intensity (a.u.); in that of “GCATGCTCACCTTGATATGTCTCGTAGATTTTTTCAGCTTCGGAGTCACCTAGTGCAG”, 9090 fluorescence intensity (a.u.); in that of “CTCGCCGCCTCCAGCCAATCCACCGCCGCCACCTTGCCGCCGGAGTCACCTAGTGCAG”, 8270 fluorescence intensity (a.u.).
In the case of “CTTTGTTTTTTCGTTTTTACCTCTTTGAGTAGGACTTTTTCGGAGTCACCTAGTGCAG” it was 12800 fluorescence intensity (a.u.).
Turning to “TTTCTTTAATCTGGTTGTTAGATTCCAACTATTTTCCTCACGGAGTCACCTAGTGCAG”, the binding signal was 8720 fluorescence intensity (a.u.).
For “CACTACCTCACCCACTACCCCGCGTCGTGCCTTTTGACTCCGGAGTCACCTAGTGCAG”, the binding signal is 10100 fluorescence intensity (a.u.).
